Measured values published in publication PMC4686654.
These are yes or no findings as the source states them, for the method shown. Tags and fused reporters may be left off the sequences shown.

Target: RhoA, yeast two-hybrid fusion, P61586
Experiment: two-hybrid; LexA and Gal4 activation domain fusions in yCK580 yeast; beta-galactosidase liquid assay (X-Gal)
Settings: remark: other sources report otherwise

binding: no binding
B1: full-length ROCK1, yeast two-hybrid fusion, Q13464 1-1354 (enzyme)
chain: MSTGDSFETRFEKMDNLLRDPKSEVNSDCLLDGLDALVYDLDFPALRKNKNIDNFLSRYKDTINKIRDLRMKAEDYEVVKVIGRGAFGEVQLVRHKSTRKVYAMKLLSKFEMIKRSDSAFFWEERDIMAFANSPWVVQLFYAFQDDRYLYMVMEYMPGGDLVNLMSNYDVPEKWARFYTAEVVLALDAIHSMGFIHRDVKPDNMLLDKSGHLKLADFGTCMKMNKEGMVRCDTAVGTPDYISPEVLKSQGGDGYYGRECDWWSVGVFLYEMLVGDTPFYADSLVGTYSKIMNHKNSLTFPDDNDISKEAKNLICAFLTDREVRLGRNGVEEIKRHLFFKNDQWAWETLRDTVAPVVPDLSSDIDTSNFDDLEEDKGEEETFPIPKAFVGNQLPFVGFTYYSNRRYLSSANPNDNRTSSNADKSLQESLQKTIYKLEEQLHNEMQLKDEMEQKCRTSNIKLDKIMKELDEEGNQRRNLESTVSQIEKEKMLLQHRINEYQRKAEQENEKRRNVENEVSTLKDQLEDLKKVSQNSQLANEKLSQLQKQLEEANDLLRTESDTAVRLRKSHTEMSKSISQLESLNRELQERNRILENSKSQTDKDYYQLQAILEAERRDRGHDSEMIGDLQARITSLQEEVKHLKHNLEKVEGERKEAQDMLNHSEKEKNNLEIDLNYKLKSLQQRLEQEVNEHKVTKARLTDKHQSIEEAKSVAMCEMEKKLKEEREAREKAENRVVQIEKQCSMLDVDLKQSQQKLEHLTGNKERMEDEVKNLTLQLEQESNKRLLLQNELKTQAFEADNLKGLEKQMKQEINTLLEAKRLLEFELAQLTKQYRGNEGQMRELQDQLEAEQYFSTLYKTQVKELKEEIEEKNRENLKKIQELQNEKETLATQLDLAETKAESEQLARGLLEEQYFELTQESKKAASRNRQEITDKDHTVSRLEEANSMLTKDIEILRRENEELTEKMKKAEEEYKLEKEEEISNLKAAFEKNINTERTLKTQAVNKLAEIMNRKDFKIDRKKANTQDLRKKEKENRKLQLELNQEREKFNQMVVKHQKELNDMQAQLVEECAHRNELQMQLASKESDIEQLRAKLLDLSDSTSVASFPSADETDGNLPESRIEGWLSVPNRGNIKRYGWKKQYVVVSSKKILFYNDEQDKEQSNPSMVLDIDKLFHVRPVTQGDVYRAETEEIPKIFQILYANEGECRKDVEMEPVQQAEKTNFQNHKGHEFIPTLYHFPANCDACAKPLWHVFKPPPALECRRCHVKCHRDHLDKKEDLICPCKVSYDVTSARDMLLLACSQDEQKKWVTHLVKKIPKNPPSGFVRASPRTLSTRSTANQSFRKVVKNTSGKTS
